Measurements reported in PubChem BioAssay AID602196 (INSERM, 2012).
Here is a random part of about 23,000 reagents. In the full data, 455 (2%) got an active call. 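Active includes both protection and sensitisation; some change values fall well beyond the stated -50 to +50 range.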 Entries without a mark were called inactive. Not all columns of the deposit are shown. The record does not give: the amount of reagent.

- Screen: 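Genes whose knock-down alters cisplatin killing of lung cancer cells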
- Cells: human A549 lung cancer cells
- Reagents: siRNA pair against human genes
- Time to read-out: 48 h transfection before cisplatin; time from cisplatin to read-out not stated
- Conditions: cisplatin at a dose killing half of control-siRNA cells; exact dose and duration not given
- Measurement: 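Cisplatin cell death as a shift from the 50% death seen with control siRNA; siRNAs toxic or growth-blocking alone scored 0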
- Direction: two-siRNA summed score (-2 to +2): higher = both siRNAs protect from cisplatin killing; -2 means both sensitise
- Hit rule: 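siRNAs harmful alone (LDH or WST-1) get 0; others get +1 for less and -1 for more cisplatin killing; genes are active when the two siRNAs give the same sign, summing to ±2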
- Calls: active = both siRNAs shift cisplatin killing the same way; inactive = no consistent shift, or siRNA harmful alone

target gene	two-siRNA summed score (-2 to +2)
ZNF407 (zinc finger protein 407)	0
COQ8B (coenzyme Q8B)	0
RGS20 (regulator of G protein signaling 20)	-1
SSTR4 (somatostatin receptor 4)	0
LINC00239 (long independently transcribed non-coding RNA 239)	0
LOC442452	0
CRISP2 (cysteine rich secretory protein 2)	0
CBLB (Cbl proto-oncogene B)	1
MPHOSPH9 (M-phase phosphoprotein 9)	0
ZNF83 (zinc finger protein 83)	0
SDE2 (spliceosome associated SDE2)	0
PRB4 (proline rich protein BstNI subfamily 4)	0
CCL16 (C-C motif chemokine ligand 16)	0
ATG9A (autophagy related 9A)	0
NSL1 (NSL1 component of MIS12 kinetochore complex)	0
SPAM1 (sperm adhesion molecule 1)	0
RHBDD3 (rhomboid domain containing 3)	0
NKX6-3 (NK6 homeobox 3)	0
ATP6V0B (ATPase H+ transporting V0 subunit b)	-1
LOC85028	0
EHBP1 (EH domain binding protein 1)	0
NAMPT (nicotinamide phosphoribosyltransferase)	2 (active)
APLF (aprataxin and PNKP like factor)	0
OR5AS1 (olfactory receptor family 5 subfamily AS member 1)	0
LOC388795	0
WIPF2 (WAS/WASL interacting protein family member 2)	0
MYOF (myoferlin)	0
KLHL21 (kelch like family member 21)	-1
EIF3K (eukaryotic translation initiation factor 3 subunit K)	0
ADAMTS18 (ADAM metallopeptidase with thrombospondin type 1 motif 18)	0
LYZL4 (lysozyme like 4)	0
GABRA2 (gamma-aminobutyric acid type A receptor subunit alpha2)	0
S100PBP (S100P binding protein)	0
SUFU (SUFU negative regulator of hedgehog signaling)	0
LOC389330	1
MCF2 (MCF.2 cell line derived transforming sequence)	1
PLPP2 (phospholipid phosphatase 2)	1
TMEM175 (transmembrane protein 175)	0
SPATA33 (spermatogenesis associated 33)	0

3 neighbouring records from above, for reference:
target gene	two-siRNA summed score (-2 to +2)
COQ8B (coenzyme Q8B)	0
RGS20 (regulator of G protein signaling 20)	-1
SSTR4 (somatostatin receptor 4)	0
